# The whole screen tested about 52,000 sequences, of which about 210 (0.4%) were called active.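 Rule for the calls: active = gene whose silencing raises cell survival under the drug, median off-target-corrected z-score across its silencing RNAs 2 or more; inactive = the rest.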 The list shows a part of the results.
# Test: Resistance to Poly (ADP-Ribose) Polymerase inhibitor: Gene Identification via Genome-wide siRNA Screen
# Conditions: mouse BRCA2 R2336H ES cells, olaparib, CellTiter-Glo viability; hits give high values
# In short: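 Mouse BRCA2 R2336H ES cells were reverse-transfected with siRNA (20 nM final), treated at 48 h with 500 nM olaparib, and read by CellTiter-Glo after 72 h. Scores: MAD-based z per siRNA, median per gene, seed off-target correction.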
row,Sequence,z-score
1,GGUCACCUGGUGUCAAUACTT against Reg2,inactive: -2.93
2,GGGCAUAUUUGGAAUCUGATT against Rtn4,inactive: 0.632
3,GGAAGAGAGGGUGAAUAUGTT against D7Ertd743e,inactive: 0.716
4,GUACAUGUCGAUGGCAGUCTT against Fthl17,inactive: -0.574
5,CCUGAAUGACAACUAUAUCTT against Glt8d2,inactive: 0.85
6,GGGACAUGAAGAAAAUGGATT against Abcf2,inactive: 0.297
7,CCAACUAUGCCAUCAAUAATT against 1700111A04Rik,inactive: 0.364
8,GGUUAAUGGGAAACUCUGCTT against Pias3,active: 2.89
9,GGAAGAUUCAUUCCAAAGATT against A430090L17Rik,inactive: 0.239
10,GCUGAUUGCUUCACCUCAUTT against Sall2,inactive: -0.932
11,CGUGCUGUUUGACGGAGUGTT against 1700027M21Rik,inactive: 0.336
12,GCUAAUGAAGCAGAGCUGUTT against Olfr1359,inactive: -0.0798
13,GCUAACUGAAAGGUUCUUCTT against Eif3s6ip,inactive: 0.108
14,GGAGCUUAUGCAUGAGUUUTT against Slc16a3,inactive: 0.0878
15,GCAAACGACGAAAGUCCAATT against C330046L10Rik,inactive: 0.564
16,GGCAAAGGAUGAUUCGGCUTT against Tfam,inactive: -0.333
17,GCUGAAUACGAUGAAGUCATT against ICRFP703B1614Q5.5,inactive: 0.736
18,CCAAGAGUCUAUAUCCGCUTT against Sardh,inactive: -0.392
19,GGAAAUGGAAGAGCAAAUUTT against 1500002M01Rik,inactive: -2.77
20,CCAAGCUACCAGGGUUUUUTT against Abcb9,inactive: 0.967
21,GCGACAGGAUGAGAAAGCATT against Ppm1f,inactive: 0.402
22,GGAUGGCUUUCUGUCUUUCTT against Trappc1,inactive: 0.428
23,GGAAUCUCAUGACUCUACCTT against Mybpc2,inactive: -0.161
24,GCACCUGGAAAUAAAAUGCTT against Selenbp2,inactive: 0.244
25,GGUAGUGUCGGAUGUGCUATT against Mab21l2,inactive: -1.39
26,GGAUAACACUGUGAGAGUUTT against Il17f,inactive: 1.01

# 4 successive entries from above, for reference:
row,Sequence,z-score
12,GCUAAUGAAGCAGAGCUGUTT against Olfr1359,inactive: -0.0798
13,GCUAACUGAAAGGUUCUUCTT against Eif3s6ip,inactive: 0.108
14,GGAGCUUAUGCAUGAGUUUTT against Slc16a3,inactive: 0.0878
15,GCAAACGACGAAAGUCCAATT against C330046L10Rik,inactive: 0.564

# (list continues)

row,Sequence,z-score
1,GGACCAUUUACACAUUCAGTT against Kptn,inactive: -0.173
2,GCCUAAGUUUGACUUAUAATT against Zc3hdc1,inactive: -0.547
3,GGCCUAAAUCUAAUCAAAGTT against D8Wsu49e,inactive: -0.559
4,CCAAACCUAUUCUGAGAUGTT against 2310020F24Rik,inactive: -0.288
5,GGAACACUGGUAACUGUAATT against Als2cr2,inactive: 0.226
6,GCUCUGAAGCUGAUACUCATT against Rab3ip,inactive: 0.769
7,GGUUUCUGCCAUCCAUCAGTT against Zfa,inactive: -0.71
8,GGUUCCAUGUUGGAUAUCATT against Stk39,inactive: 0.0941
9,GGGUCCUCUGAAAGUUACCTT against Fndc5,inactive: -0.0209
10,GGACCAUUCUGAAGAGCAGTT against Il5ra,inactive: 0.967
11,GCCUCCACAUAGCUUCAACTT against 1110030H02Rik,inactive: 1.14
12,GGUCCGGGAGUAACUUUUCTT against Mafb,inactive: 0.362
13,GGACGGCAGAAAGCAUUUATT against Olfr317,inactive: -2.51
14,GGAAAGGUAAUCCUGACUUTT against Asb17,inactive: -0.415
15,GGGCUUUACUGACUUCAAGTT against Hexa,inactive: -0.584
16,CCACCGAAUUCGGAAAACATT against Siat7b,inactive: -0.637
17,GGAGAUUCUGUGCAAUGCATT against Dnajc12,inactive: 0.534
18,GGUACAAUCCCAGAUUUGATT against Cspg6,inactive: -2.2
19,GGACAGAGUUACCUAGGCATT against 5730590G19Rik,inactive: -1.16
20,GGGUGCAUUACCCAGAUAUTT against Olfr1353,inactive: 0.599
21,GGAAUAAUCCCAGAAUCAGTT against Stard6,inactive: -0.775
22,GGAUGCUAUGAGCAACUUUTT against Mc4r,inactive: -0.515
23,GGAUGUCGAAGAAACAAAUTT against Ceacam12,inactive: 1.8
24,GGAAAGCUUAUUUUCUCUCTT against Ppp1r1c,inactive: 0.178
25,GGAAAAGAAUUGUAUACAGTT against Gprk2l,inactive: 0.703
26,GGGCAAGUAUGGCUAUGUGTT against 4632424B03Rik,inactive: -1.74

row,Sequence,z-score
1,GGAAAUUCACAAACAUGGATT against 2700085M18Rik,inactive: 0.305
2,GGUGUUUUGCUUCCUUUUCTT against Olfr1184,inactive: 0.128
3,GGUGGUCAAUCGGAAGCUCTT against B430201G11Rik,inactive: 0.661
4,GCAUUACCUGUAGUCUAUGTT against Itln2,inactive: -2.62
5,GGACAUAGCAUGGUUCUAATT against Sult4a1,inactive: -0.348
6,GGGAGUAGUAAUUGUACUUTT against Ugt2a2,inactive: -0.91
7,GCCGUAUGGCAAGAUUGUCTT against Rbms2,inactive: -2.2
8,GGACUCCUUAGAGAAACUUTT against Prlpk,inactive: -1.39
9,GGUGGAAGGAAAGAGACCUTT against Ian3,inactive: 1.18
10,GCCCUGAAGCCUAUAAUCATT against Nhlrc1,inactive: -2.33
11,GGUCAACGUGUAUGUAUUUTT against Lrat,inactive: -1.75
12,GGAAGUCACAAAUAAUUUGTT against Gpiap1,inactive: 0.264
13,GGAAAAUCACUGAAAAGUATT against Siat7a,inactive: -0.883
14,GGAAUUCAUUGCUAUUAUGTT against Cetn3,inactive: 0.183
15,GCACAAGUCAAGAGCUACCTT against Ccrk,inactive: 0.157
16,GGUCAAAAGUGCUCUGAAGTT against Olfr447,inactive: -0.141
17,GGAUCUGGGAUACCACACATT against Wdr1,inactive: -1.82
18,UCUCUUGGUACAUUUGGCATT against 1700073E17Rik,inactive: -0.787
19,GGAGAUCACCUUCCUGAAGTT against Comp,inactive: 0.243
20,GGAAUUGGCAUCCUUAAGCTT against Cops3,inactive: 0.45
21,GGUGAAAAGAUGCAGGUGATT against Atp1a3,inactive: 1.12
22,CCCAUCCUAUGUGCCCUAUTT against Krtap13-1,inactive: 1.06
23,GGAUGUUCCAUUUCUAAGCTT against Zfp30,inactive: 0.743
24,GGACAGAAACUAAUUGCAUTT against Tmc5,inactive: -0.0482
25,GGAGAAUACCAGCAACAUCTT against Golga5,inactive: 0.731
26,GGUCAAUGUGAUUGAGGAUTT against Centb1,inactive: -1.12

# Copied from the list.
# z-score with GGACAGAAACUAAUUGCAUTT against Tmc5 reads inactive: -0.0482
# z-score with GGAAAUUCACAAACAUGGATT against 2700085M18Rik reads inactive: 0.305

# Remaining list, next part

row,Sequence,z-score
1,GAAAUCCAAGAGCAAUGAGTT against LOC56628,inactive: -2.45
2,GCUAUAGAUUGGCUUUAUGTT against Depdc1a,inactive: -0.73
3,GGAAUUUGAUGAGGAUUUGTT against 3-Sep,inactive: -0.0602
4,CCCUUUGUGUGGAUUAUAUTT against Sp9,inactive: 1.18
5,GGACAUCGUAGAGAAAGUUTT against Msi1h,inactive: -0.754
6,CGAGCUGUGUUUUUGGCUGTT against Mrpl11,inactive: 1.28
7,GGUUCCUUCGUUGUGUUGATT against Irx3,inactive: 0.103
8,GCUGGAGCUAUCCAACACUTT against Chst11,inactive: 0.113
9,CCUCACUGUAAUGUAACUUTT against Scarf2,inactive: 0.294
10,CCGGAAAAUACGCACUGUATT against Obox6,inactive: 1.91
11,GAAUCUGGUGAAGUAUUAUTT against Phip,inactive: 0.254
12,GCCGCUAUGUCACACUAACTT against A830020B06Rik,inactive: 2.11
13,GCACUUUUCUAGGAGCAGCTT against Arx,inactive: 0.287
14,GGGCUGUGGUUUCUAUGACTT against Tpra40,inactive: -0.591
15,GGUGGCAAAACAGUCUGUATT against Olfr1457,inactive: -1.25
16,GGGACUAUCCACUCACUUUTT against Olfr981,inactive: -0.0216
17,CCAUCACGAGUGAAUUCGATT against Olfr945,inactive: -0.125
18,GGAGAAGAAAGUGGAGGCATT against Rplp1,inactive: -2.14
19,GGAGGGUAUUAGUGCACUGTT against Ptpn1,inactive: -2.12
20,CCACGCUACCUUCAAGAGATT against 1200003C23Rik,inactive: 0.253
21,GGAUAUGCACAGACCACCCTT against Ewsr1,inactive: -0.301
22,GGUUGUUCAGUUCAAACUCTT against Dbt,inactive: 0.861
23,CCCUAAUCACAUUUUGUGATT against Socs5,inactive: 0.47
24,GCCUUGGACUGCUUUGGAUTT against Dnclic1,inactive: -0.368
25,GCGGUUCUUACCAAGGACATT against LOC435684,inactive: -2.41
26,GGGAACUGAAAAAUUUAGATT against 4932412H11Rik,inactive: 0.241
